# Source: the supplement of paper PMC3334620
# In all, about 33,000 sequences were measured (“E-score (-0.5 to 0.5)”: median about -0.0059, highest 2% from about 0.26 on). The list shows a part of the results.
# Target: T1, Cin5 (UniProt P40917)
# T1 sequence: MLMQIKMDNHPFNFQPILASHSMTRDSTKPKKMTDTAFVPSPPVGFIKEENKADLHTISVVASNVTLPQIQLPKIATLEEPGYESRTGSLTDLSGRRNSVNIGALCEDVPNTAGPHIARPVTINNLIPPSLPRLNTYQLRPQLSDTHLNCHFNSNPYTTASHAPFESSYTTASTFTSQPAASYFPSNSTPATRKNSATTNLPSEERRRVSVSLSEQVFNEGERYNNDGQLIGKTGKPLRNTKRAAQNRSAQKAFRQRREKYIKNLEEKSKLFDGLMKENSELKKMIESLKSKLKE
# Assay: PBM E-score (8-mer binding enrichment) (E-score (-0.5 to 0.5)); higher = stronger / more preferred TF binding
# Details: protein concentration: 100 nM; construct: GST-full length
# Outline: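 Each ungapped eight-base word and its reverse complement, pooled, received an E-score from the Universal PBM Analysis Suite. Underlying scans, normalised with masliner, recorded fluorescent anti-GST bound to GST-tagged yeast transcription factors. These were applied at about 100-200 nM to universal all-10-mer Agilent arrays double-stranded by primer extension.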
row,Sequence,PBM E-score
1,AAATCTGT,0.111
2,AAAATAGT,0.0745
3,AGCCCAAG,-0.0399
4,ATCTCGTC,0.0617
5,CCACTGCG,0.00457
6,AACTCTCA,-0.0921
7,CTCCTGGC,-0.0848
8,AGTAAGAT,0.183
9,GACTGGAA,-0.2
10,CCCACAAA,0.257
11,CGGAGAAG,-0.174
12,CTTACGGA,0.0965
13,AAATAGTG,0.213
14,CATCAAAC,0.0949
15,GGGTTGGA,-0.0377
16,CAGTGGGA,-0.0471
17,CCAGTCGA,-0.153
18,AATCGGAT,0.231
19,GGGAACGA,-0.166
20,AGTCTTCG,-0.26
21,GATCTACA,0.0592
22,ACAGACCT,0.0646

row,Sequence,PBM E-score
1,ACGGTTGA,0.0263
2,AGTACCCG,-0.0806
3,CAAAGGTC,-0.166
4,AAAATTCA,0.207
5,ACCCTGGA,-0.243
6,AGGGCAGA,-0.179
7,TCTACCAA,0.0398
8,ATCGAGCG,0.0899
9,CCCTGTCA,-0.149
10,CGAACCAG,0.11
11,GGTTGTTA,0.151
12,AATGCAAT,-0.0436
13,TAAGTATA,0.204
14,ATCACCGA,0.0464
15,ATAGACCA,0.0762
16,TCCCCAGA,0.0124
17,GCGAGTAA,0.143
18,CATTGCGC,0.122
19,GGCACCAC,-0.18
20,AATTCCCT,-0.12
21,CAAGCTCC,-0.241
22,AACTGTGC,-0.142

row,Sequence,PBM E-score
1,GTGCACTA,-0.0155
2,CACTAGTC,-0.0528
3,GCTGTCAA,-0.136
4,AAGGAAGG,-0.115
5,TCAGAACA,0.0894
6,CCCACGGG,-0.229
7,AAGTGAGT,0.0146
8,CGGTAAGA,0.0466
9,ACCAGTGC,-0.287
10,AGTAATAC,0.2
11,ACCTCTAG,-0.0989
12,AAAGTAAC,0.166
13,GGCGCAAC,-0.055
14,AGTGAATA,0.0861
15,ACGCCCAA,-0.00809
16,CGGCTGGA,-0.111
17,AACACACC,0.099
18,ATATTGCC,0.111
19,ACAAAGTA,0.0268
20,AGTACATC,0.0156
21,CGACAGTA,0.0632
22,AGGCGCCC,-0.234

row,Sequence,PBM E-score
1,CGTCATAC,0.189
2,GAGAGAGA,0.0106
3,GCCTTTAA,-0.107
4,AATTCGGC,-0.0241
5,AGACAACT,0.189
6,CTGCGCGA,-0.079
7,ATATGTGG,0.142
8,GCTTCGAA,-0.00828
9,CTTCAGGC,-0.19
10,CAAGGGTG,-0.166
11,GAGGTGTA,-0.0397
12,CTAGAGAG,-0.244
13,CTACCGTC,-0.105
14,GGAACGAA,0.0662
15,ACCCCTTA,-0.162
16,GTGTAAGA,0.0309
17,AACGGATC,0.24
18,CGATTAGC,0.0872
19,ATCATTCA,0.187
20,CGCTAGAG,-0.139
21,TAAGGTAA,0.205
22,GCTGCAGC,-0.00142

row,Sequence,PBM E-score
1,GCGGATTA,0.225
2,CGGGTTAC,0.0429
3,ACTTTGCT,-0.00495
4,CCCGCGTC,0.0801
5,TCCTTTAA,-0.0313
6,GAGTAGCC,-0.15
7,CGAGTGAC,-0.0844
8,GCGTTACC,-0.111
9,CCGCGAGC,-0.139
10,GGGAGACA,-0.0654
11,AATGTGCC,-0.124
12,GTGTCGCA,-0.0707
13,GCGACACA,0.0581
14,CACCAGTC,-0.21
15,ATCGTAGG,-0.107
16,ATATAATG,0.21
17,ACTGTGGG,-0.0885
18,AGATTGCA,-0.0174
19,CCGGGCAA,-0.092
20,CGTAGATA,0.0684
21,AGTGAAGC,-0.0382
